Construct, isoform or probe ends are uncertain for at least one entry. At least one verdict was read from the data and is not stated in words by the source. Protein sequences can lack the tags named with them.
Target: T1, CYT-18 CTD (Neurospora crassa) (UniProt P12063)
T1 sequence (looked up): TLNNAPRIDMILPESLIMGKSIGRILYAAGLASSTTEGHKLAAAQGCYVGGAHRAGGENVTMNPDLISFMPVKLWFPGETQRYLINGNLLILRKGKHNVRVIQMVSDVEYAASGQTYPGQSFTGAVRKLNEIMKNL
Experiment: filter binding
Conditions: range over five RNAs, sigmoidal, 100 mM KCl, 5 mM MgCl2, 20 mM Tris-HCl pH 7.5, 5 mM DTT, 0.1 mg/ml BSA, 10% glycerol, 5 pM RNA, 30 min, 25C or 37C, nitrocellulose/nylon filter, recombinant protein, residues 448-583, label: 5'-32P

**Q.** Does “UUUUUUUUUUUUUUUUUUUUUUUUUUUUUU [poly(U)30]” bind (25C)?
**A.** binds

**Q.** Does “UUUUUUUUUUUUUUUUUUUUUUUUUUUUUU [poly(U)30]” bind (37C)?
**A.** binds

Reference: publication PMC4275181
